Results deposited as PubChem BioAssay AID1224831 (NIAID, 2016).
Purpose: 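Genes that support or restrain LPS-induced TNF-alpha reporter activity in macrophage-like cells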 (follow-up of hits). System: human THP-1 B5 monocytic leukaemia cells carrying a TNF promoter luciferase reporter, made macrophage-like with PMA. Reagents: single siRNA against human genes, 50 nM. Timing: about 68 h of knock-down, then 4 h LPS. Conditions: LPS (Salmonella minnesota, TLR-grade) at 10 ng/ml for 4 h; PMA 5 ng/ml present during knock-down. Measurement: 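TNF promoter reporter read as dual luciferase ratio after 4 h LPS, normalised per plate to its median, given as replicate mean robust z-score per siRNA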. Scale: TNF reporter z-score: higher = stronger LPS-induced TNF reporter signal; z-score, median over gene's siRNAs: higher = stronger TNF reporter signal across the gene's siRNAs. Call rule: 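Two-sided call: reduced or raised TNF reporter signal counts as active once mean z reaches about -1 or below, or about 1.5 or above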. Meaning of the calls: active = changed TNF reporter (either direction); inactive = little change.
In all, the deposit lists about 3,500 reagents; below is a part drawn at random. 731 of them (21%) were called active. 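Active means either lowered or raised reporter signal; the gene-median score did not drive the per-siRNA calls.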 Entries without a mark were called inactive. Reagents against one gene are numbered here.

Target gene	reagent no.	TNF reporter z-score, replicate mean	z-score, median over gene's siRNAs
UBASH3A	1	-0.07	0.445
UBASH3A	2	0.68	0.445
UBASH3A	3	0.63	0.445
UBASH3A	4	1.37	0.445
UBASH3A	5	0.26	0.445
UBASH3A	6	-0.15	0.445
SMARCE1	1	0.35	0.495
SMARCE1	2	0.92	0.495
SMARCE1	3	0.32	0.495
SMARCE1	4	-0.9	0.495
SMARCE1	5	0.9	0.495
SMARCE1	6	0.64	0.495
VPS54	1	0.33	0.165
VPS54	2	-0.47	0.165
VPS54	3	0	0.165
VPS54	4	-0.17	0.165
VPS54	5	1.13	0.165
VPS54	6	0.65	0.165
IPMK	1	-0.53	-0.085
IPMK	2	-0.71	-0.085
IPMK	3	1.27	-0.085
IPMK	4	-0.18	-0.085
IPMK	5	0.2	-0.085
IPMK	6	0.01	-0.085
ART1	1	-0.98	-0.28
ART1	2	-0.25	-0.28
ART1	3	-0.78	-0.28
ART1	4	0.31	-0.28
ART1	5	-0.31	-0.28
ART1	6	0.71	-0.28
PCF11	1	-3.11 (active)	-2.19
PCF11	2	-2.09 (active)	-2.19
PCF11	3	-3.2 (active)	-2.19
PCF11	4	-1.92 (active)	-2.19
PCF11	5	-1.6 (active)	-2.19
PCF11	6	-2.28 (active)	-2.19
PITX1	1	-0.18	-0.445
PITX1	2	-0.48	-0.445
PITX1	3	-0.41	-0.445
PITX1	4	-0.02	-0.445
PITX1	5	-0.74	-0.445
PITX1	6	-1.51 (active)	-0.445

Records listed above called active, once more:
Target gene	reagent no.	TNF reporter z-score, replicate mean	z-score, median over gene's siRNAs
PCF11	1	-3.11 (active)	-2.19
PCF11	2	-2.09 (active)	-2.19
PCF11	3	-3.2 (active)	-2.19
PCF11	4	-1.92 (active)	-2.19
PCF11	5	-1.6 (active)	-2.19
PCF11	6	-2.28 (active)	-2.19
PITX1	6	-1.51 (active)	-0.445

The listing continues:
Target gene	reagent no.	TNF reporter z-score, replicate mean	z-score, median over gene's siRNAs
FOXK1	1	-1.31 (active)	0.27
FOXK1	2	0.1	0.27
FOXK1	3	1.49	0.27
FOXK1	4	0.92	0.27
FOXK1	5	0.44	0.27
FOXK1	6	-0.04	0.27
EEF1A2	1	0.8	0.33
EEF1A2	2	-0.5	0.33
EEF1A2	3	-0.14	0.33
EEF1A2	4	3.77 (active)	0.33
EEF1A2	5	-0.39	0.33
EEF1A2	6	1.93 (active)	0.33
MOS	1	0.35	0.07
MOS	2	-0.62	0.07
MOS	3	-0.21	0.07
MOS	4	2.17 (active)	0.07
MOS	5	0.8	0.07
MOS	6	-0.48	0.07
ZDHHC4	1	-0.52	-0.25
ZDHHC4	2	-0.52	-0.25
ZDHHC4	3	-0.31	-0.25
ZDHHC4	4	0.54	-0.25
ZDHHC4	5	-0.19	-0.25
ZDHHC4	6	0.96	-0.25
HARS2	1	0.49	0.615
HARS2	2	-0.19	0.615
HARS2	3	1.83 (active)	0.615
HARS2	4	-1.13 (active)	0.615
HARS2	5	0.74	0.615
HARS2	6	3.33 (active)	0.615
SNRPC	1	-0.72	-0.675
SNRPC	2	0	-0.675
SNRPC	3	-1.16 (active)	-0.675
SNRPC	4	-0.85	-0.675
SNRPC	5	-0.23	-0.675
SNRPC	6	-0.63	-0.675
PIWIL1	1	-0.26	0.345
PIWIL1	2	0.17	0.345
PIWIL1	3	0.46	0.345
PIWIL1	4	1.65 (active)	0.345
PIWIL1	5	0.23	0.345
PIWIL1	6	0.77	0.345
